PubChem BioAssay AID1159584 | Peter MacCallum Cancer Centre – 2016
Shown is a random part of about 18,000 reagents. The numbers tell different reagents against one gene apart. Not given: the amount of reagent, the time to read-out.

- Assay: 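Genes that CDH1-null MCF10A cells selectively depend on to survive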 (primary screen)
- System: human MCF10A breast epithelial cells, parental and CDH1-null
- Reagent: siRNA against human genes
- Measurement: 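Cell viability by CellTiter-Glo ATP luminescence, each line scaled to the mean of mock wells across plates, then CDH1-null over parental ratio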
- Scale: CDH1-null / parental viability ratio: higher = CDH1-null cells survive relatively better than parental; CDH1-null viability vs mock: higher = more viable CDH1-null cells; parental viability vs mock: higher = more viable parental cells

Gene	reagent	CDH1-null / parental viability ratio	CDH1-null viability vs mock (fraction of mock)	parental viability vs mock (fraction of mock)
DUS3L (dihydrouridine synthase 3 like)	1	1.16	0.36	0.31
UBE2D2 (ubiquitin conjugating enzyme E2 D2)	1	1.13	0.8	0.71
PKP4 (plakophilin 4)	1	0.93	0.53	0.57
SLC22A16	1	0.91	0.64	0.7
MYC (MYC proto-oncogene, bHLH transcription factor)	1	1.59	0.51	0.32
ERP27 (endoplasmic reticulum protein 27)	1	0.92	0.7	0.76
HSF5 (heat shock transcription factor 5)	1	1	0.7	0.7
TRPA1	1	1.25	1.1	0.88
SINHCAF (SIN3-HDAC complex associated factor)	1	1.17	0.88	0.75
LGMN (legumain)	1	1.2	0.89	0.74
DMXL1 (Dmx like 1)	1	1.25	1.09	0.87
ANKRD49 (ankyrin repeat domain 49)	1	1.15	1	0.87
MRPS2 (mitochondrial ribosomal protein S2)	1	1.35	0.92	0.68
PRRG2 (proline rich and Gla domain 2)	1	0.92	0.68	0.74
GPC2 (glypican 2)	1	1.38	1.05	0.76
HMGB4 (high mobility group box 4)	1	1.06	0.56	0.53
STAM (signal transducing adaptor molecule)	1	1.02	0.64	0.63
PRLHR (prolactin releasing hormone receptor)	1	1.4	0.94	0.67
SLFN11 (schlafen family member 11)	1	1.02	0.86	0.84
GGCX (gamma-glutamyl carboxylase)	1	1	0.97	0.97
MCU (mitochondrial calcium uniporter)	1	1.32	0.66	0.5
C4orf17 (chromosome 4 open reading frame 17)	1	1	0.94	0.94
MRPL21 (mitochondrial ribosomal protein L21)	1	1.08	0.96	0.89
BICD2 (BICD cargo adaptor 2)	1	0.95	0.55	0.58
ASXL1 (ASXL transcriptional regulator 1)	1	0.92	0.73	0.79
OPCML (opioid binding protein/cell adhesion molecule like)	1	0.96	1.1	1.15
RASA3 (RAS p21 protein activator 3)	1	0.77	0.66	0.86
ERLEC1 (endoplasmic reticulum lectin 1)	1	1	0.89	0.89
SLC30A6	1	1.06	0.89	0.84
LCN6 (lipocalin 6)	1	1.03	0.66	0.64
HAPLN2 (hyaluronan and proteoglycan link protein 2)	1	1	0.53	0.53
SLC22A7	1	0.77	0.63	0.82
DUSP1 (dual specificity phosphatase 1)	1	1.08	0.78	0.72
ARHGAP31 (Rho GTPase activating protein 31)	1	0.86	0.67	0.78
FAM217A (family with sequence similarity 217 member A)	1	1.19	0.7	0.59
LTBP3 (latent transforming growth factor beta binding protein 3)	1	1.02	0.45	0.44
IKZF2 (IKAROS family zinc finger 2)	1	1.19	0.88	0.74
KAZN (kazrin, periplakin interacting protein)	1	0.86	0.56	0.65
DHPS (deoxyhypusine synthase)	1	1.51	1.45	0.96
SOX17 (SRY-box transcription factor 17)	1	1.01	1.05	1.04
PACSIN2 (protein kinase C and casein kinase substrate in neurons 2)	1	0.85	0.61	0.72
SYT3 (synaptotagmin 3)	1	1.05	0.84	0.8
EBF2 (EBF transcription factor 2)	1	1.19	0.57	0.48
SLIT1 (slit guidance ligand 1)	1	1.06	0.82	0.77
PRRG3 (proline rich and Gla domain 3)	1	1.14	0.64	0.56
TTLL5 (tubulin tyrosine ligase like 5)	1	0.64	0.5	0.78
CCDC86 (coiled-coil domain containing 86)	1	0.73	0.47	0.64
FBXO33 (F-box protein 33)	1	1	1.06	1.06
SMPDL3B (sphingomyelin phosphodiesterase acid like 3B)	1	0.86	1.02	1.18
ART3 (ADP-ribosyltransferase 3 (inactive))	1	0.74	0.42	0.57
USP27X (ubiquitin specific peptidase 27 X-linked)	1	1.06	0.89	0.84
CD1A (CD1a molecule)	1	1.18	0.85	0.72
ZNF416 (zinc finger protein 416)	1	1.01	0.93	0.92
TAFA3 (TAFA chemokine like family member 3)	1	0.9	0.72	0.8
RBMY1E (RNA binding motif protein Y-linked family 1 member E)	1	1.05	0.96	0.91
ARSD (arylsulfatase D)	1	0.94	0.92	0.98
PABPN1L (PABPN1 like, cytoplasmic)	1	1.22	0.56	0.46
LCOR (ligand dependent nuclear receptor corepressor)	1	0.97	0.85	0.88
LCOR (ligand dependent nuclear receptor corepressor)	2	0.93	0.7	0.75
ARHGAP45 (Rho GTPase activating protein 45)	1	0.85	0.82	0.96
CTDSPL (CTD small phosphatase like)	1	1.02	0.82	0.8
CDKL1 (cyclin dependent kinase like 1)	1	0.74	0.56	0.76
MTARC2 (mitochondrial amidoxime reducing component 2)	1	0.82	0.9	1.1
CDKN2D (cyclin dependent kinase inhibitor 2D)	1	0.96	0.54	0.56
TRIP10 (thyroid hormone receptor interactor 10)	1	1.16	0.5	0.43
TRIM16L (tripartite motif containing 16 like (pseudogene))	1	1.16	1.03	0.89
UBE2E2 (ubiquitin conjugating enzyme E2 E2)	1	1.05	0.96	0.91
KDM2B (lysine demethylase 2B)	1	0.96	0.81	0.84

Taken from above:
Entry for MRPS2 (mitochondrial ribosomal protein S2) in “CDH1-null viability vs mock (fraction of mock)”: 0.92
Value for ARHGAP31 (Rho GTPase activating protein 31) under “CDH1-null viability vs mock (fraction of mock)”: 0.67
CD1A (CD1a molecule), parental viability vs mock (fraction of mock) → 0.72
Under “CDH1-null viability vs mock (fraction of mock)”, ZNF416 (zinc finger protein 416) has 0.93
Under “CDH1-null viability vs mock (fraction of mock)”, PRLHR (prolactin releasing hormone receptor) has 0.94
For “CDH1-null viability vs mock (fraction of mock)”, MRPL21 (mitochondrial ribosomal protein L21) has 0.96
